# According to US7015249B1, “Methods and compositions for treating diabetes” (Purdue Research Foundation, priority 1997, dated 2006):
# At least one compound was matched to its structure with a doubt left.
# Experiments:
# Zucker (fa/fa) rats = settings: TZD 0.2%, cited from earlier work
# Zucker rats = assay: Plasma insulin, triglyceride and free fatty acid concentrations in Zucker rats; format: in vivo, rat; settings: fa/fa rats, TZD diet
# From the text: Diet components were obtained from Dyets, Inc. (Bethlehem, Pa.) and the CLA isomeric mixture (90% pure mixture) from PharmaNutrients, Chicago, Ill. The CLA mixture had the following isomeric distribution: 42% of a composition including cis,trans-9,11 and trans,cis-9,11-octadecadienoic acid; 43.5% trans,cis-10,12-octadecadienoic acid; 1% cis,cis-9,11-octadecadienoic acid; 1% cis,cis-10,12-octadecadienoic acid; and 1.5% of a composition including trans,trans-9,11-octadecadienoic acid and trans,trans-10,12-octadecadienoic acid, all on a weight percent basis. The CLA mixture also included, on a weight percent basis, about 0.5% linoleate, about 5.5% oleate and about 5% other lipids as discussed above. The thiazolidinedione, TZD (Rezulin™, Parke-Davis, Ann Arbor, MI), was used as a positive control for anti-diabetic activity in these studies. Male Zucker fatty (fa/fa) rats and lean littermates (wt) were obtained at six weeks of age from Genetic Models, Inc. (Indianapolis, Ind.). Because the primary aim of the study was to determine the ability of CLA to improve insulin action and prevent the onset of diabetes, all rats were determined normoglycemic prior to assignment to experimental treatments. After maintaining rats on experimental diets for 14 days, rats were euthanized by CO2 and cervical dislocation and blood collected and immediately analyzed for post-prandial glucose concentrations (see below) or placed into heparinized test tubes for plasma analyses as described below. […] Body weights were measured twice weekly and average food consumption estimated by measuring differences in weight of freshly supplied diet and diet remaining in feeders two days later. […] Blood glucose levels were determined using a One Touch glucose meter (Lifescan, Inc.). Plasma insulin levels were determined using commercially available radioimmunoassay kits (Linco Research, St. Charles, Mo.). Plasma nonesterified fatty acids were quantified using a calorimetric kit (Wako). Plasma triglyceride concentrations were determined using a commercially available kit (Sigma Diagnostics, St. Louis, Mo.).
# [1] = system: Zucker fatty (fa/fa) rats; assay: Glucose tolerance test in Zucker rats; format: in vivo, rat; settings: day 11 of diet, D-glucose 1 g/kg i.p.
# ACO and mAP2 mRNA = assay: Tissue-specific gene expression (ACO, mAP2) by RT-PCR in rats fed experimental diets; format: in vivo, rat; settings: diet 14 days, 1.5% CLA or 0.2% troglitazone, vs control diet
# Method: Male Zucker fatty (fa/fa) rats and lean littermates (wt) were obtained at six weeks of age from Genetic Models, Inc. (Indianapolis, Ind.). Because the primary aim of the study was to determine the ability of CLA to improve insulin action and prevent the onset of diabetes, all rats were determined normoglycemic prior to assignment to experimental treatments. (The diets are discussed in the subsequent section). After maintaining rats on experimental diets for 14 days, rats were euthanized by CO2 and cervical dislocation and tissues collected, weighed and frozen. RT-PCR was performed as described above. The genes utilized as markers of tissue and subtype specific PPAR activation included Acyl-CoA Oxidase (ACO; found in the liver and induced by PPARα activation), Adipocyte Specific Protein (mAP2; found in adipose tissue and induced by activation of PPARγ) and ACO in the muscle (induced by PPARβ). […] Body weights were measured twice weekly and average food consumption estimated by measuring differences in weight of freshly supplied diet and diet remaining in feeders two days later. […]
compound,measurement,setting,value
Cc1c(C)c2c(c(C)c1O)CCC(C)(COc1ccc(CC3SC(=O)NC3=O)cc1)O2 (centres unmarked) [Troglitazone],"elevated glucose, triglycerides, free fatty acids and urinary protein",Zucker (fa/fa) rats; Zucker (fa/fa) rats,suppressing
same,normalizing glucose tolerance,Zucker (fa/fa) rats; after 15 days,effective at normalizing
same,circulating free fatty acids (change in words),Zucker rats,markedly decreased
same,circulating insulin (change in words),Zucker rats,markedly decreased
same,circulating triglycerides (change in words),Zucker rats,markedly decreased
same,blood glucose reduction in glucose tolerance test vs control animals,[1],reduced much more rapidly
same,ACO mRNA expression in PPARα-containing tissue (liver),ACO and mAP2 mRNA,significantly induce
same,ACO mRNA expression in tissue with predominantly PPARγ (adipose tissue),ACO and mAP2 mRNA,significantly induce
